For the test, the system named is P388 leukemia ip, CD2F1 mice, survival T/C. The experiment in a line: NCI In Vivo Anticancer Drug Screen. Data for tumor model P388 Leukemia (intraperitoneal) in CD2F1 (CDF1) mice. The settings on record: T/C endpoint: median survival time, higher T/C = longer survival.
[1] abbreviates: dose: 50.0 mg/kg/injection, schedule: Q01DX009 (ip), vehicle: saline.
The mark [2] stands for this setting: dose: 100.0 mg/kg/injection, schedule: Q01DX009 (ip), vehicle: saline.
Setting [3] is: dose: 12.5 mg/kg/injection, schedule: Q04DX003 (ip), vehicle: saline with Tween-80.
Setting [4] is: dose: 25.0 mg/kg/injection, schedule: Q04DX003 (ip), vehicle: saline with Tween-80.
The mark [5] stands for this setting: dose: 50.0 mg/kg/injection, schedule: Q04DX003 (ip), vehicle: saline with Tween-80.
[6] abbreviates: dose: 50.0 mg/kg/injection, schedule: Q04DX003 (ip), vehicle: saline.
Setting [7] is: dose: 100.0 mg/kg/injection, schedule: Q04DX003 (ip), vehicle: saline.
Where [8] appears, read: dose: 200.0 mg/kg/injection, schedule: Q04DX003 (ip), vehicle: saline.
[9] abbreviates: dose: 400.0 mg/kg/injection, schedule: Q04DX003 (ip), vehicle: saline.
[10] abbreviates: dose: 200.0 mg/kg/injection, schedule: Q01DX009 (ip), vehicle: Klucel (hydroxypropylcellulose) (HPC).

Each structure is given as a SMILES string. The list shows only some results of the screen, not a fair sample: it covers a few groups of compounds. Not every dose and run of a compound is shown. T/C: endpoint of the treated group in % of that of the vehicle group. Some entries give survivors of the animals treated and no T/C: the source holds a T/C of zero for them, seemingly a mark for toxic or unscored doses. Some doses without a T/C left all or most animals alive at the check, yet need not have been tolerated: survival well below the control is almost never listed, so the zero probably covers shortened survival too. Survivors were counted at the toxicity check, usually on the fifth day, unless a day is given; later deaths do not show. Schedules are NCI's codes, read here as Q, the interval in days (D) or hours (H), X, the number of doses. For survival time, this PubChem deposit counts one and a half times the control or more as active, and values a quarter to a half above the control carry no call in these data; other NCI protocols may use other cut-offs. Some doses were run more than once; the results are listed from low to high. Some T/C values are marked as having no survivor count here; that says nothing about deaths at the dose. Some metal complexes and salts are drawn in pieces, as in the source, so charges may not balance. Some T/C values are followed by the survivors on the day toxicity was checked, most often the fifth; where neither a count nor a note follows, no animal had died by that day.

In the case of `COc1cc([N+](=O)[O-])c2nc(C(O)C[N+](=O)[O-])ccc2c1[N+](=O)[O-]` (stereo not drawn), the T/C is 106 % of control (dose: 3.13 mg/kg/injection, schedule: Q01DX009 (ip), vehicle: distilled water + Tween-80); 100 % of control (dose: 6.25 mg/kg/injection, schedule: Q01DX009 (ip), vehicle: distilled water + Tween-80); 98 and 104 % of control (dose: 12.5 mg/kg/injection, schedule: Q01DX009 (ip), vehicle: distilled water + Tween-80); 88 and 100 % of control (dose: 25.0 mg/kg/injection, schedule: Q01DX009 (ip), vehicle: distilled water + Tween-80); 90 and 98 % of control [4 of 5 alive] (dose: 50.0 mg/kg/injection, schedule: Q01DX009 (ip), vehicle: distilled water + Tween-80); 98 % of control [4 of 5 alive] (dose: 100.0 mg/kg/injection, schedule: Q01DX009 (ip), vehicle: distilled water + Tween-80). Besides, the survivor count (dose: 200.0 mg/kg/injection, schedule: Q01DX009 (ip), vehicle: distilled water + Tween-80) is 2 of 5.

On to `CCC(COB(OCC(CC)[N+](=O)[O-])OCC(CC)[N+](=O)[O-])[N+](=O)[O-]` (stereo not drawn), for which the T/C under setting [1] was 96 % of control; the T/C under setting [2] is 97 % of control [5 of 6 alive]; the T/C (dose: 200.0 mg/kg/injection, schedule: Q01DX009 (ip), vehicle: saline) is 88 % of control.

As to `COP(C)(=O)O.[U]`, the T/C reads like this: (dose: 6.25 mg/kg/injection, schedule: Q04DX003 (ip), vehicle: saline with Tween-80) 87 [survivor count not shown], 100 [survivor count not shown], 113 % of control [survivor count not shown]; under setting [3], 99 [survivor count not shown], 116 [survivor count not shown], 126 % of control [survivor count not shown]; under setting [4], 92 [survivor count not shown], 108 [survivor count not shown], 113 % of control [survivor count not shown]; under setting [5], 117 % of control [survivor count not shown].

Take `O=C(O)C1COP(=O)(N(CCCl)CCCl)N1` (stereo not drawn): the T/C (dose: 12.5 mg/kg/injection, schedule: Q01DX001 (ip), vehicle: saline with Tween-80) was 99 % of control; the T/C (dose: 25.0 mg/kg/injection, schedule: Q01DX001 (ip), vehicle: saline with Tween-80) is 100 % of control; the T/C (dose: 50.0 mg/kg/injection, schedule: Q01DX001 (ip), vehicle: saline with Tween-80) was 101 % of control; the T/C (dose: 100.0 mg/kg/injection, schedule: Q01DX001 (ip), vehicle: saline with Tween-80) was 105 % of control.

Turning to `O[C@H](CNCCCl)[C@H](O)CNCCCl`, the T/C (dose: 0.63 mg/kg/injection, schedule: Q04DX003 (ip), vehicle: saline) is 107 % of control; the T/C (dose: 1.25 mg/kg/injection, schedule: Q01DX009 (ip), vehicle: saline) was 119 % of control; the T/C (dose: 1.25 mg/kg/injection, schedule: Q04DX003 (ip), vehicle: saline) was 100 % of control; the T/C (dose: 2.5 mg/kg/injection, schedule: Q01DX009 (ip), vehicle: saline) was 142 % of control; the T/C (dose: 2.5 mg/kg/injection, schedule: Q04DX003 (ip), vehicle: saline) was 115 % of control; the T/C (dose: 5.0 mg/kg/injection, schedule: Q01DX009 (ip), vehicle: saline) was 190 % of control. The T/C (dose: 5.0 mg/kg/injection, schedule: Q04DX003 (ip), vehicle: saline) is 126 % of control; the T/C under setting [3] was 154 % of control; the T/C under setting [4] is 204 % of control; the T/C (dose: 33.0 mg/kg/injection, schedule: Q04DX003 (ip), vehicle: saline) is 218 % of control; the T/C under setting [5] is 240 % of control; the T/C under setting [6] is 181 % of control. In addition, the survivor count by setting is: (dose: 75.0 mg/kg/injection, schedule: Q04DX003 (ip), vehicle: saline) 5 of 6; under setting [7], 6 of 6; under setting [8], 6 of 6; under setting [9], 0 of 6.

As to `O=[N+]([O-])c1cc([N+](=O)[O-])c(-n2cnc([N+](=O)[O-])c2)c([N+](=O)[O-])c1`, the survivor count is 0 of 6 (dose: 25.0 mg/kg/injection, schedule: Q04DX003 (ip), vehicle: saline); 0 of 6 under setting [6]; 1 of 6 under setting [7]; 0 of 6 under setting [8]; 0 of 6 under setting [9].

Take `Nc1c([N+](=O)[O-])cc([N+](=O)[O-])c(-c2nnc(-c3c([N+](=O)[O-])cc([N+](=O)[O-])c(N)c3[N+](=O)[O-])o2)c1[N+](=O)[O-]`: the T/C is, setting by setting: (dose: 50.0 mg/kg/injection, schedule: Q04DX002 (ip), vehicle: saline with Tween-80) 102 % of control; (dose: 100.0 mg/kg/injection, schedule: Q04DX002 (ip), vehicle: saline with Tween-80) 109 % of control; (dose: 200.0 mg/kg/injection, schedule: Q04DX002 (ip), vehicle: saline with Tween-80) 100 % of control.

On to `CCc1cccc2ccc(N(CCBr)CCBr)cc12`, for which the T/C is 132 % of control (dose: 25.0 mg/kg/injection, schedule: Q01DX009 (ip), vehicle: Klucel (hydroxypropylcellulose) (HPC)); 144 and 157 % of control (dose: 50.0 mg/kg/injection, schedule: Q01DX009 (ip), vehicle: Klucel (hydroxypropylcellulose) (HPC)); 86 and 153 % of control (dose: 100.0 mg/kg/injection, schedule: Q01DX009 (ip), vehicle: Klucel (hydroxypropylcellulose) (HPC)); 134 % of control under setting [10]. The survivor count reads like this: under setting [10], 5 of 6; (dose: 400.0 mg/kg/injection, schedule: Q01DX009 (ip), vehicle: Klucel (hydroxypropylcellulose) (HPC)) 6 of 6.

Take `O=C(SC(c1ccccc1)C(Cl)Cl)c1ccccc1` (stereo not drawn): the T/C is 93 % of control (dose: 50.0 mg/kg/injection, schedule: Q01DX009 (ip), vehicle: saline with Tween-80); 89 % of control (dose: 100.0 mg/kg/injection, schedule: Q01DX009 (ip), vehicle: saline with Tween-80); 98 % of control (dose: 200.0 mg/kg/injection, schedule: Q01DX009 (ip), vehicle: saline with Tween-80).

On to `O=C(Cn1nnc2ccccc21)N(CCCl)CCCl`, for which the T/C (dose: 30.0 mg/kg/injection, schedule: Q01DX005 (ip), vehicle: saline with Tween-80) is 89 % of control; the T/C (dose: 60.0 mg/kg/injection, schedule: Q01DX005 (ip), vehicle: saline with Tween-80) was 108 and 111 % of control; the T/C (dose: 120.0 mg/kg/injection, schedule: Q01DX005 (ip), vehicle: saline with Tween-80) was 113 [5 of 6 alive] and 133 % of control [5 of 6 alive]; the T/C (dose: 240.0 mg/kg/injection, schedule: Q01DX005 (ip), vehicle: saline with Tween-80) is 155 and 178 % of control.

Turning to `COP(C)(=O)OC.COP(C)(=O)OC.COP(C)(=O)OC.COP(C)(=O)OC.COP(C)(=O)OC.COP(C)(=O)OC.[Al+3].[O-][Cl+3]([O-])([O-])O`, the T/C is, setting by setting: under setting [1], 97 % of control [survivor count not shown]; under setting [2], 88 % of control [survivor count not shown].

As for `CP1(OCC(F)(F)F)=NP(OCC(F)(F)F)(OCC(F)(F)F)=NP(OCC(F)(F)F)(OCC(F)(F)F)=N1` (stereo not drawn), the T/C runs as follows: (dose: 60.0 mg/kg/injection, schedule: Q01DX005 (ip), vehicle: Klucel (hydroxypropylcellulose) (HPC)) 96 % of control; (dose: 120.0 mg/kg/injection, schedule: Q01DX005 (ip), vehicle: Klucel (hydroxypropylcellulose) (HPC)) 100 % of control; (dose: 240.0 mg/kg/injection, schedule: Q01DX005 (ip), vehicle: Klucel (hydroxypropylcellulose) (HPC)) 96 % of control.

On to `CCSC1c2ccccc2C(SCC)N(C#N)C1Br` (stereo not drawn), for which the T/C is 109 % of control (dose: 50.0 mg/kg/injection, schedule: Q01DX005 (ip), vehicle: distilled water + Tween-80 + alcohol); 106 % of control (dose: 100.0 mg/kg/injection, schedule: Q01DX005 (ip), vehicle: distilled water + Tween-80 + alcohol); 105 % of control (dose: 200.0 mg/kg/injection, schedule: Q01DX005 (ip), vehicle: distilled water + Tween-80 + alcohol).

Values taken from PubChem BioAssay AID330 (DTP/NCI, 2004).
